Measurements as given in patent US9827212B2, “Compositions and methods for treating asthma and other lung diseases” (THE TRUSTEES OF THE UNIVERSITY OF PENNSYLVANIA, priority 2010, dated 2017).
At least one structure is not confirmed: it was looked up by name or label, or the drawing left a doubt.

Assays:
RANTES = RANTES secretion from human precision cut lung slices (PCLS); assay type: cell-based; settings: TNFα (10 ng/mL) and IFNγ (10,000 IU/mL) induced; TSA 10 μM or budesonide 50 nM 2 h prior
Experimental: FIG. 11. […] Secretion of IL-6 and RANTES was analyzed as described under materials and methods. Values shown are mean+/− s.d. from three samples.
(§1) The levels of cytokine secreted into the supernatants of PCLS and bronchoalveolar lavage (BAL) fluid samples were determined by ELISA according to standard protocols as previously described (Banerjee et al. 2008). The cytokine amounts were calculated from the standard curves in each plate. The limits of detection were 5 pg/ml for IL-4 and IL-6 and RANTES standards. Recombinant mouse IL-4 and IL-6 and human RANTES were used as controls.
Human lung slice preparation. Human PCLS were prepared as previously described (Cooper et al. 2008). Briefly, healthy whole human lungs were received from the NDRI, and the smallest lobe was dissected out and its main bronchus identified. The lobe was inflated using a 2% (wt/vol) low melting point agarose solution. Once the agarose had set, the lobe was sectioned, and cores of 8-mm diameter were made. The cores that contained a small airway by visual inspection were sliced at a thickness of 250 μm (Krumdieck Tissue Slicer; model no. MD4000; Alabama Research and Development) and collected in wells containing supplemented Ham's F-12 medium. […]
Three airways from each donor were used per condition; n values indicate the number of donors. Data are expressed as means± SEM. […]

IL-6 = IL-6 level in BAL fluid (ELISA); assay type: in vivo, mice
Experimental: (§2) Mice were sensitized by intraperitoneal (I.P.) injections of 20 μg allergen, a protein extract of the ubiquitous, airborn fungus, Aspergillus fumigatus (AF), (Bayer Pharmaceuticals), in 100 μl PBS solution containing 2 mg of alum (Imject Alum, Pierce) on days 0 and 14 and challenged on days 25, 26, and 27 with 30 μl of Af extract in PBS (25 μg) intranasally (i.n.) (FIG. 1).
as §1

[1] = system: inflammatory cells in bronchoalveolar lavage (BAL) fluid; assay: BAL cell count and differential; assay type: in vivo, mice
Experimental: as §2
After functional measurements were completed, lungs were lavaged with 1-ml aliquots of sterile saline through the tracheal cannula. After centrifuging (500 g for 10 min at 4° C.) the cell pellet was resuspended in RPMI. Differential cell counts were made from cytospin preparations as described (Elwood et al. 1991). Cells were identified as macrophages, eosinophils, neutrophils, and lymphocytes by standard morphology and at least 300 cells were counted under ×400 magnification. The percentage and absolute numbers of each cell type were then calculated. The supernatants were harvested and stored at −20° C. for further analysis.

IL-4 = IL-4 level in BAL fluid (ELISA); assay type: in vivo, mice
Experimental: as §2, §1

[2] = mice sensitized and challenged with Aspergillus
[3] = unsensitized and unchallenged (naïve) mice

Row | Structure (SMILES) | inhibition of RANTES secretion from PCLS (RANTES) | IL-6 in BAL (IL-6; [2]) | IL-6 in BAL (IL-6; [3]) | BAL eosinophil counts ([1]; Aspergillus challenged mice, TSA 0.6 mg/kg i.p., dexamethasone 2.5 mg/kg i.p.) | total cell counts in BAL ([1]; Aspergillus sensitized and challenged mice, TSA 0.6 mg/kg i.p., dexamethasone 2.5 mg/kg i.p.) | percentages of inflammatory cells in the BAL ([1]; after allergen sensitization and challenge) | total cell counts in BAL ([1]; naïve mice, TSA 0.6 mg/kg i.p., dexamethasone 2.5 mg/kg i.p.) | BAL macrophages, neutrophils, or lymphocytes ([1]; untreated mice or Aspergillus sensitized and challenged mice) | IL-4 in BAL (IL-4; [2]) | IL-4 in BAL (IL-4; [3])
1 | CCCC1O[C@@H]2C[C@H]3[C@@H]4CCC5=CC(=O)C=C[C@]5(C)[C@H]4[C@@H](O)C[C@]3(C)[C@]2(C(=O)CO)O1 (stereo partly shown) [budesonide] | did not significantly inhibit | – | – | – | – | – | – | – | – | –
2 | C[C@@H]1C[C@H]2[C@@H]3CCC4=CC(=O)C=C[C@]4(C)[C@@]3(F)[C@@H](O)C[C@]2(C)[C@@]1(O)C(=O)CO [dexamethasone] | – | attenuated these elevations | did not increase | decreased BAL eosinophils | decreased the total cell counts | little effect | no significant difference in cell counts | no significant differences | attenuated these elevations | did not increase
